Data: the supplement of paper PMC12067093, “Discovery and optimisation of a covalent ligand for TRIM25 and its application to targeted protein ubiquitination” (Chemical Science, 2025)
The other results are listed elsewhere or left out.

Amino acid sequences for entries named in this document (tags omitted). A change or cut given only in a name is not applied to a line headed by its entry.
UniProt Q92945: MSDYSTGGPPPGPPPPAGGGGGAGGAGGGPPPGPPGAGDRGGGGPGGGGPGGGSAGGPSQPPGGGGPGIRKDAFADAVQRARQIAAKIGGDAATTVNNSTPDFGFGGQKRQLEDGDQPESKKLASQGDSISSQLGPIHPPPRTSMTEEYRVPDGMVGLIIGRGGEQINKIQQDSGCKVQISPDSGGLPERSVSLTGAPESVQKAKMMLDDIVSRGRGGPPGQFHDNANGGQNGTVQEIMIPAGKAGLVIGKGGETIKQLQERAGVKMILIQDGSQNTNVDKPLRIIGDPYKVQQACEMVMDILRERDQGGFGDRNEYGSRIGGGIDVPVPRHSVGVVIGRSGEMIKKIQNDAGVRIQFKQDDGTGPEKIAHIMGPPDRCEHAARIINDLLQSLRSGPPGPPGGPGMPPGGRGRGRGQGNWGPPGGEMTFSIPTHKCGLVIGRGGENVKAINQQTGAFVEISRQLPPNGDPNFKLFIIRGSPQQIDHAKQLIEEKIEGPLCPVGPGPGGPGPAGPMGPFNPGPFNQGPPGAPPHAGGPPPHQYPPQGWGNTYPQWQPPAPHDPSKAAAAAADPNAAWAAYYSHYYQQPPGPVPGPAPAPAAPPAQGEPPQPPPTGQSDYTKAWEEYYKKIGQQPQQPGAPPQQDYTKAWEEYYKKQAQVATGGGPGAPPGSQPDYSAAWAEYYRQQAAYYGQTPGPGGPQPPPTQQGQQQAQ
UniProt Q15058: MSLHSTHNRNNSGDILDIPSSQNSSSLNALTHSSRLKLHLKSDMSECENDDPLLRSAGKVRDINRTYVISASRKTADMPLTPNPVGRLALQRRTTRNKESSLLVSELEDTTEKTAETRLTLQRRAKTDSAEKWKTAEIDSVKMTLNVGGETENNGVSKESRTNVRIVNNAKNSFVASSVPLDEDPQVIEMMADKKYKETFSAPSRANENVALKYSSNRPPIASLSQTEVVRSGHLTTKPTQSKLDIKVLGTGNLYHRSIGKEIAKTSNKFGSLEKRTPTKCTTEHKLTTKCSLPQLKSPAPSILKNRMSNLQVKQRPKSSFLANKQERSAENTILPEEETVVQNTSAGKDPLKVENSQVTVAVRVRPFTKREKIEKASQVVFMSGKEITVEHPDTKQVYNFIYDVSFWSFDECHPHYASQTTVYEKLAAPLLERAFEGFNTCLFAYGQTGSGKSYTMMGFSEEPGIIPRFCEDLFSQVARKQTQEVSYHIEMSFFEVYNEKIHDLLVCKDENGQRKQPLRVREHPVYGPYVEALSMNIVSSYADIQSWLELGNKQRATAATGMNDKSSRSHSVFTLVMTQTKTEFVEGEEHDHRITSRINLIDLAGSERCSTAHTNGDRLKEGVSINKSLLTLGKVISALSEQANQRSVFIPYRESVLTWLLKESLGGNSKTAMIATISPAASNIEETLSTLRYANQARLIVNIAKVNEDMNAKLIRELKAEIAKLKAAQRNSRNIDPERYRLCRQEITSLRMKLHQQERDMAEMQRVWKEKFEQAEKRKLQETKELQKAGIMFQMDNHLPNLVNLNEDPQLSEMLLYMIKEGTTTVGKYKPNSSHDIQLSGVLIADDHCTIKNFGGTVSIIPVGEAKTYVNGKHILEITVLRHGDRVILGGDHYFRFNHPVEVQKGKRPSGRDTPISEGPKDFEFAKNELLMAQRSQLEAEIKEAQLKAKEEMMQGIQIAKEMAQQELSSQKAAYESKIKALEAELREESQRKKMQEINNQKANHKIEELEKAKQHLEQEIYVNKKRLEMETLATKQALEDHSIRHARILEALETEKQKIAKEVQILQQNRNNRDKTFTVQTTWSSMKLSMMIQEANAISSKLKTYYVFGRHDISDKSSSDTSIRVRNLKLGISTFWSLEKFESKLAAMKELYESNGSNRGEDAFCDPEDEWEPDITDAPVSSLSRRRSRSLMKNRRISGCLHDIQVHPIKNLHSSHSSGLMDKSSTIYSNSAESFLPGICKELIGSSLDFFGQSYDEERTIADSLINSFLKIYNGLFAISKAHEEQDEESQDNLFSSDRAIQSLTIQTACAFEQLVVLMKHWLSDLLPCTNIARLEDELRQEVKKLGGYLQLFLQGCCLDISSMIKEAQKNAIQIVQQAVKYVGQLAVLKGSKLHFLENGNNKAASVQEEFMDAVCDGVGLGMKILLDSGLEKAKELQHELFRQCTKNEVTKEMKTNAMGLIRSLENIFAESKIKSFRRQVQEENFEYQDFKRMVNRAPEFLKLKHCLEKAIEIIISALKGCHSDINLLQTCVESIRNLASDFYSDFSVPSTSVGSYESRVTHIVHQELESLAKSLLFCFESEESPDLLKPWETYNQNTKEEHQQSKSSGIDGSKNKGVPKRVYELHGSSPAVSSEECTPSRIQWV
UniProt Q7LBC6: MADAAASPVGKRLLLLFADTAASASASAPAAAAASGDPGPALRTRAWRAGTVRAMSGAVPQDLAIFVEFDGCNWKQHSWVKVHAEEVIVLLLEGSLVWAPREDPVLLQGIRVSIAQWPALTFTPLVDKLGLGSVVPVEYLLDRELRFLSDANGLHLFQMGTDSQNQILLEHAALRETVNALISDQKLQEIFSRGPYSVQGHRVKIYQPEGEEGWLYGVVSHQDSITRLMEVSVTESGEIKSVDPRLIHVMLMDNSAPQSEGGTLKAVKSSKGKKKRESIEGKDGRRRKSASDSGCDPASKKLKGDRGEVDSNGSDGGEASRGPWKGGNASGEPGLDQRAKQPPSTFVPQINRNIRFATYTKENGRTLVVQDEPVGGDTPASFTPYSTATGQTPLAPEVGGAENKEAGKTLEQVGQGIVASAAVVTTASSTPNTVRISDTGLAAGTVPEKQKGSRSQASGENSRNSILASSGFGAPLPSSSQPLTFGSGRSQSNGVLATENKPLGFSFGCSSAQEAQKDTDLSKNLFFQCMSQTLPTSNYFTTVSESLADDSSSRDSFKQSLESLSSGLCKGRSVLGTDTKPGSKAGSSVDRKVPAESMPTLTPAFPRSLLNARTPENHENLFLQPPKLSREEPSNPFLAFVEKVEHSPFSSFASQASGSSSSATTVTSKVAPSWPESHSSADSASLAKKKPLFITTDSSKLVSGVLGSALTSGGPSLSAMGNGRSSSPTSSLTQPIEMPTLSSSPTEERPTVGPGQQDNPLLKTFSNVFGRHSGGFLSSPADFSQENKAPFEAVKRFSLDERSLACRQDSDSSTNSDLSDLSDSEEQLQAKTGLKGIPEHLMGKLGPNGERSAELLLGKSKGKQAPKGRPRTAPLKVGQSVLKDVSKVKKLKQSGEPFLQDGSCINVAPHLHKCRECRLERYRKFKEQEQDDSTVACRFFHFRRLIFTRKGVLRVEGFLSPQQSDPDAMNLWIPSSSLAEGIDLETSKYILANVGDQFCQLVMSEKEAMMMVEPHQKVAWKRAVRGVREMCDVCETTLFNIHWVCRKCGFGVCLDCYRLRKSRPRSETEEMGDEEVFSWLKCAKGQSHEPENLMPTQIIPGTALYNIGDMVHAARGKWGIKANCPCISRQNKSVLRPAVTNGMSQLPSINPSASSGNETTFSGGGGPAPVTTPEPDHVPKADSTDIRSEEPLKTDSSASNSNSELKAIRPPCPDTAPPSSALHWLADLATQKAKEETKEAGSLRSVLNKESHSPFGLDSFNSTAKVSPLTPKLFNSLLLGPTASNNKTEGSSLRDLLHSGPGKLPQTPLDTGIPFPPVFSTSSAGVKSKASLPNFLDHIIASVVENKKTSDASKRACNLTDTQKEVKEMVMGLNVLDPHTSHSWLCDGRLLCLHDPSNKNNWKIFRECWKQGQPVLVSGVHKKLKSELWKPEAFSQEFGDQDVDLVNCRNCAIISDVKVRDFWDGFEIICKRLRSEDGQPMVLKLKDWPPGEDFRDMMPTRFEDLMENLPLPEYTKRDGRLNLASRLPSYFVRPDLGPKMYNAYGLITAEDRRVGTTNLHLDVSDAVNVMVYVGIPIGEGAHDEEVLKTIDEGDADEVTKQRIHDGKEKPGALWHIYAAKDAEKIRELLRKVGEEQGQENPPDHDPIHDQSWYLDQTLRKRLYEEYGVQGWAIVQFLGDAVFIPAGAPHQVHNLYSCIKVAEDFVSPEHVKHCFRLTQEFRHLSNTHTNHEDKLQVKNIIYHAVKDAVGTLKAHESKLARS
UniProt Q14145, whole entry, looked up: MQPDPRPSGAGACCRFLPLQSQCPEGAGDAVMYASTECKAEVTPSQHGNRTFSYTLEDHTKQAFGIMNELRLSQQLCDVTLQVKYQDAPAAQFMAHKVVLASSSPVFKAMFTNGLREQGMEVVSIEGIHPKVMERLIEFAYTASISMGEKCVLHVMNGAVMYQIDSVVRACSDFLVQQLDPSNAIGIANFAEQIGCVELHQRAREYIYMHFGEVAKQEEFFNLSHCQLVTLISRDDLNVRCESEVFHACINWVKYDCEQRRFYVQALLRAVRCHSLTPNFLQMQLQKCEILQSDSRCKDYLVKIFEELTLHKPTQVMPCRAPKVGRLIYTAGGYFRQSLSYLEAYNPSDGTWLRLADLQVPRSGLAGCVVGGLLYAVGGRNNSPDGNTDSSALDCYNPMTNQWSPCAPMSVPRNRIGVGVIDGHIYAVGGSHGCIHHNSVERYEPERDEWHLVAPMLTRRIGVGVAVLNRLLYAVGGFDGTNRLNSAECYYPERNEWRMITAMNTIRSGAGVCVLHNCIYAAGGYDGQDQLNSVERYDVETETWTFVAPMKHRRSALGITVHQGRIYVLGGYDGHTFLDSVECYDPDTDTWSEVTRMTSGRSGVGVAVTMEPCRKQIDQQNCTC
UniProt Q9NQT8: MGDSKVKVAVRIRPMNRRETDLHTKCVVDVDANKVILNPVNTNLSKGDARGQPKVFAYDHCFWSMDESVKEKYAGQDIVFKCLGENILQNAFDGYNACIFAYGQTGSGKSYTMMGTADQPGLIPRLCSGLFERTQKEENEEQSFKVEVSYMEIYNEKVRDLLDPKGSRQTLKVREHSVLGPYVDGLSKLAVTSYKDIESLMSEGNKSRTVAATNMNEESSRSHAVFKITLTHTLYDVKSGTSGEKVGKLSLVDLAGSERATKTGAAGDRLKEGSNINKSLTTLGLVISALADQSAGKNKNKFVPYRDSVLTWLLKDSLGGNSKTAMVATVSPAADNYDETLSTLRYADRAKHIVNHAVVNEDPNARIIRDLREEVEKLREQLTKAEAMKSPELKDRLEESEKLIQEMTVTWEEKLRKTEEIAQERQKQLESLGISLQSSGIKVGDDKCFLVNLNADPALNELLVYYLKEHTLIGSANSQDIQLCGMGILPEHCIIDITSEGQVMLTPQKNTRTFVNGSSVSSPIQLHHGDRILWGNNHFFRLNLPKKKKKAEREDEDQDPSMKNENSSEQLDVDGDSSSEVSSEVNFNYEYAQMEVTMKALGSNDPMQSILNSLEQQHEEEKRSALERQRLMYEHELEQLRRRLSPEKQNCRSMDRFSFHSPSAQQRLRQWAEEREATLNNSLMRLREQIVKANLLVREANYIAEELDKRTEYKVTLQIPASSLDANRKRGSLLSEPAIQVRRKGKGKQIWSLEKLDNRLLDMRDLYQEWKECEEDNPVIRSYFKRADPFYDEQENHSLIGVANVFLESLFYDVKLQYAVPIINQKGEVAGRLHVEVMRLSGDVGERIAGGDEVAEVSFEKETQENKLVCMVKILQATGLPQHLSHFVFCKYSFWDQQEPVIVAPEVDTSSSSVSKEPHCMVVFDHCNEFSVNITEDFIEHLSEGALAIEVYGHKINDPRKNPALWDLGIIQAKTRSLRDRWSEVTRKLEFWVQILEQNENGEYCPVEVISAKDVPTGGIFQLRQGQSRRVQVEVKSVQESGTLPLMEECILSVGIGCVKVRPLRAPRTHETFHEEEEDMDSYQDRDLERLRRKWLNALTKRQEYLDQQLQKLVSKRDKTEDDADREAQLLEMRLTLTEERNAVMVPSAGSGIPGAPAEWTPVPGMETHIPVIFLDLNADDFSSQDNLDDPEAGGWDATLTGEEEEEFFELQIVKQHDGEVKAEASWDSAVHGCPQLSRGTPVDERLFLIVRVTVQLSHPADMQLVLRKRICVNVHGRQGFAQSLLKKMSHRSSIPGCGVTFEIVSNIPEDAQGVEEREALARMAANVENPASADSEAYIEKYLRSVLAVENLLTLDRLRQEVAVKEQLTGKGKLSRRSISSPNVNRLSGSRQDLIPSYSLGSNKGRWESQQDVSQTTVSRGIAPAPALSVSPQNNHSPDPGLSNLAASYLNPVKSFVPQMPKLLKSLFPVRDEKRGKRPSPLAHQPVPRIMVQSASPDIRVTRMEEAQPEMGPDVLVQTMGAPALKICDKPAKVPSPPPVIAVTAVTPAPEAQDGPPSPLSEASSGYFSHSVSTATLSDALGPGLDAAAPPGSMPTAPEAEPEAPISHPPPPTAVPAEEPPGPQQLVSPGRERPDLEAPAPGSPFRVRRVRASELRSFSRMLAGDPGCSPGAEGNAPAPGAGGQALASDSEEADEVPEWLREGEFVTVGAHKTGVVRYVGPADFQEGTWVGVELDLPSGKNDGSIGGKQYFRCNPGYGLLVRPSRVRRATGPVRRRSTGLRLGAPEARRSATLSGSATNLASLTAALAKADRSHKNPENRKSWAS

Compound: Cc1cc(ccc1-c1ccccc1)C(=O)N1CCCN(CC1)C(=O)CCl [compound 10]
Test: probe-labelled cysteine peptide fold change vs DMSO (competition) (log2 fold change); higher = less target engagement (more negative = stronger competition)
Settings: 10 µM; THP-1; incubation time: 4 h
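Note: competitive profiling in live THP-1 cells: cysteine peptides tagged with an iodoacetamide desthiobiotin (IA-DTB) probe, intensity after compound treatment relative to DMSO-treated cells.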

Row | Target | probe-labelled cysteine peptide fold change
1 | ITPR1_Q14643_253_FLTCDEHR (UniProt Q14643) | 0.0624
2 | ITPR1_Q14643_1471_ACNNTSDR (UniProt Q14643) | 0.656
3 | KCMF1_Q9P0J7_54_HTTDHPMQCILTR (UniProt Q9P0J7) | 0.166
4 | KDM2A_Q9Y2K7_840_VLVQHCPAR (UniProt Q9Y2K7) | 0.0814
5 | KIF1B_O60333_356_CNAVINEDPNAK (UniProt O60333) | -0.214
6 | KBTBD11_O94819_99_ACPEEPAAPSPEPR (UniProt O94819) | -0.122
7 | KIAA1958_Q8N8K9_246_PKPQTHAGPSCVGSAK (UniProt Q8N8K9) | -0.307
8 | KAT5_Q92993_11_AEVGEIIEGCR (UniProt Q92993) | -0.0999
9 | KIF11_P52732_43_ASAHSIVECDPVRK (UniProt P52732) | -0.00202
10 | JOSD2_Q8TAC2_24_LELCAVHALNNVLQQQLFSQEAADEICKR (UniProt Q8TAC2) | 0.0239
11 | KIF20B_Q96Q89_1642_HPGCTTPVTVK (UniProt Q96Q89) | -0.0176
12 | KHSRP_Q92945_176_IQQDSGCK (UniProt Q92945) | 0.238
13 | KAT2A_Q92830_815_EYNPPDSEYCR (UniProt Q92830) | -0.143
14 | KDM1A_O60341_600_YTASGCEVIAVNTR (UniProt O60341) | 0.0882
15 | JMJD6_Q6NYC1_207_RWCLFPTSTPR (UniProt Q6NYC1) | -0.0774
16 | KIF15_Q9NS87_1062_ILSEDIERDMLCEDLAHATEQLNMLTEASK (UniProt Q9NS87) | 0.00745
17 | JAK1_P23458_716_DLVHGNVCTK (UniProt P23458) | -0.1
18 | KCNAB2_Q13303_212_QFNLTPPICEQAEYHMFQR (UniProt Q13303) | -0.0555
19 | KIF21A_Q7Z4S6_1588_DWVCALGVVPDHPVLLSGCR (UniProt Q7Z4S6) | -0.0354

Row | Target | probe-labelled cysteine peptide fold change
20 | KIF14_Q15058_850_YKPNSSHDIQLSGVLIADDHCTIK (UniProt Q15058) | 0.287
21 | KDM4A_O75164_763_ASEDWMCSR (UniProt O75164) | 0.2
22 | KDM5C_P41229_376_CVMAECK (UniProt P41229) | -0.182
23 | KDSR_Q06136_245_LISETTSVCKPEQVAK (UniProt Q06136) | -0.219
24 | KDM2B_Q8NHM5_1278_DSLTEINLSDCNK (UniProt Q8NHM5) | 0.0712
25 | KDM3B_Q7LBC6_1045_EMCDVCETTLFNIHWVCR (UniProt Q7LBC6) | 0.276
26 | KAT6A_Q92794_508_CPSVIEFGK (UniProt Q92794) | -0.105
27 | KAT2A_Q92830_695_VYPGLSCFK (UniProt Q92830) | -0.151
28 | KHSRP_Q92945_379_CEHAAR (UniProt Q92945) | 0.0644
29 | KCTD9_Q7L273_220_CQGLNFSGADLSR (UniProt Q7L273) | 0.184
30 | KEAP1_Q14145_624_QIDQQNCTC (UniProt Q14145) | -0.465
31 | JARID2_Q92833_206_TATNNASSSCQSTPR (UniProt Q92833) | -0.271
32 | KIF11_P52732_740_CENIQK (UniProt P52732) | -0.103
33 | KIF13B_Q9NQT8_26_CVVDVDANK (UniProt Q9NQT8) | -0.0801
34 | ITPR1_Q14643_1439_IAYINFLNHCYVDTEVEMK (UniProt Q14643) | 0.193
35 | KHSRP_Q92945_436_CGLVIGR (UniProt Q92945) | 0.173
36 | KIF11_P52732_723_QTHSQELCK (UniProt P52732) | 0.0314
37 | KIDINS220_Q9ULH0_867_FLVTSATNGDVPCSDTTGIQEDADRR (UniProt Q9ULH0) | -0.0872
38 | ITPR2_Q14571_1385_DRGDESGPLAYHITLVELLAACTEGK (UniProt Q14571) | 0.482

Same assay, conditions: 50 µM; THP-1; incubation time: 4 h

Row | Target | probe-labelled cysteine peptide fold change
39 | ITPR1_Q14643_253_FLTCDEHR (UniProt Q14643) | 0.337
40 | ITPR1_Q14643_1471_ACNNTSDR (UniProt Q14643) | 0.625
41 | KCMF1_Q9P0J7_54_HTTDHPMQCILTR (UniProt Q9P0J7) | -0.0382
42 | KDM2A_Q9Y2K7_840_VLVQHCPAR (UniProt Q9Y2K7) | -0.36
43 | KIF1B_O60333_356_CNAVINEDPNAK (UniProt O60333) | 0.131
44 | KBTBD11_O94819_99_ACPEEPAAPSPEPR (UniProt O94819) | 0.114
45 | KIAA1958_Q8N8K9_246_PKPQTHAGPSCVGSAK (UniProt Q8N8K9) | -0.781
46 | KAT5_Q92993_11_AEVGEIIEGCR (UniProt Q92993) | 0.275
47 | KIF11_P52732_43_ASAHSIVECDPVRK (UniProt P52732) | 0.0726
48 | JOSD2_Q8TAC2_24_LELCAVHALNNVLQQQLFSQEAADEICKR (UniProt Q8TAC2) | -0.878
49 | KIF20B_Q96Q89_1642_HPGCTTPVTVK (UniProt Q96Q89) | 0.000338
50 | KHSRP_Q92945_176_IQQDSGCK (UniProt Q92945) | 0.0223
51 | KAT2A_Q92830_815_EYNPPDSEYCR (UniProt Q92830) | 0.554
52 | KDM1A_O60341_600_YTASGCEVIAVNTR (UniProt O60341) | 0.335
53 | JMJD6_Q6NYC1_207_RWCLFPTSTPR (UniProt Q6NYC1) | 0.248
54 | KIF15_Q9NS87_1062_ILSEDIERDMLCEDLAHATEQLNMLTEASK (UniProt Q9NS87) | -0.085
55 | JAK1_P23458_716_DLVHGNVCTK (UniProt P23458) | -0.321
56 | KCNAB2_Q13303_212_QFNLTPPICEQAEYHMFQR (UniProt Q13303) | 0.0233
57 | KIF21A_Q7Z4S6_1588_DWVCALGVVPDHPVLLSGCR (UniProt Q7Z4S6) | 0.15

Row | Target | probe-labelled cysteine peptide fold change
58 | KIF14_Q15058_850_YKPNSSHDIQLSGVLIADDHCTIK (UniProt Q15058) | 0.27
59 | KDM4A_O75164_763_ASEDWMCSR (UniProt O75164) | 0.0792
60 | KDM5C_P41229_376_CVMAECK (UniProt P41229) | -0.398
61 | KDSR_Q06136_245_LISETTSVCKPEQVAK (UniProt Q06136) | -0.142
62 | KDM2B_Q8NHM5_1278_DSLTEINLSDCNK (UniProt Q8NHM5) | 0.0647
63 | KDM3B_Q7LBC6_1045_EMCDVCETTLFNIHWVCR (UniProt Q7LBC6) | 0.238
64 | KAT6A_Q92794_508_CPSVIEFGK (UniProt Q92794) | 0.167
65 | KAT2A_Q92830_695_VYPGLSCFK (UniProt Q92830) | -0.549
66 | KHSRP_Q92945_379_CEHAAR (UniProt Q92945) | -0.0173
67 | KCTD9_Q7L273_220_CQGLNFSGADLSR (UniProt Q7L273) | 0.174
68 | KEAP1_Q14145_624_QIDQQNCTC (UniProt Q14145) | -0.267
69 | JARID2_Q92833_206_TATNNASSSCQSTPR (UniProt Q92833) | -0.701
70 | KIF11_P52732_740_CENIQK (UniProt P52732) | -0.0778
71 | KIF13B_Q9NQT8_26_CVVDVDANK (UniProt Q9NQT8) | -0.119
72 | ITPR1_Q14643_1439_IAYINFLNHCYVDTEVEMK (UniProt Q14643) | 0.305
73 | KHSRP_Q92945_436_CGLVIGR (UniProt Q92945) | -0.213
74 | KIF11_P52732_723_QTHSQELCK (UniProt P52732) | -0.326
75 | KIDINS220_Q9ULH0_867_FLVTSATNGDVPCSDTTGIQEDADRR (UniProt Q9ULH0) | -0.0611
76 | ITPR2_Q14571_1385_DRGDESGPLAYHITLVELLAACTEGK (UniProt Q14571) | 0.386
